# Experimental data from PubChem BioAssay AID445 (National Center for Advancing Translational Sciences (NCATS), 2006).
# The list shows a part of the results. Further columns of the screen follow, without active or inactive calls. Most of these compounds were active or inconclusive in the main read-out, so they are no random draw. Potencies come from curve fits of mixed quality, noted in brackets.
# Test: IkB Signaling
# Conditions: ABC-DLBCL IkBa-CBG/CBR dual luciferase ratio (green luciferase fused to IkBa over red control in OCI-Ly3 lymphoma cells), 4 h
# Outline: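 In this assay, an IκBα–CBG68 fusion accumulates when IKK-driven degradation is blocked; native CBR normalizes for cell number. OCI-Ly3 cells were treated 4 h with compound and doxycycline, then green and red light read after Chroma-Glo addition.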
# [1] = measured here: control luc red channel unless noted
# [2] = measured here: IkB-luc green channel
# [3] = measured here: control luc red channel
structure (smiles),measurement,setting,value
O=C(CSC1=Nc2ccccc2N=C(c2ccc(F)cc2)C1)NCc1ccc(Cl)cc1,AC50,[1],"10 µM [falling, partial curve]"
Cc1cc(S(=O)(=O)NCC(c2ccc(N(C)C)cc2)N2CCOCC2)ccc1F (stereo unspecified),AC50,[1],"15.8 µM [falling, partial curve, poor fit]"
CCn1nc(C)c2c(-c3ccccc3)cc(=O)n(C(C)C(=O)NCc3ccc(C)cc3)c21 (stereo unspecified),AC50,[1],"3.98 µM [falling, single point]"
CC(=O)c1ccc(NC(=O)c2nc3ccccc3n(C)c2=O)cc1,AC50,[1],"3.98 µM [rising, single point]"
Cc1ccc(CN(C(=O)COc2ccc(Cl)cc2Cl)C2CCS(=O)(=O)C2)o1 (stereo unspecified),AC50,[1],"15.8 µM [falling, partial curve]"
O=c1cnc2cncnc2n1Cc1ccc(F)cc1,AC50,[1],"5.01 µM [rising, partial curve] [measured here: IkB-luc green channel]"
CC(C)(C)c1ccccc1OCCCCCNCCO,AC50,[1],"12.6 µM [falling, partial curve]"
Cc1ccc(C)c(Nc2nc3nonc3nc2Nc2cccc(C)c2C)c1,AC50,[1],"7.94 µM [falling, full curve]"
O=C(C1CCN(S(=O)(=O)Cc2ccccc2)CC1)N1CCN(c2ccccc2F)CC1,AC50,[1],"39.8 µM [falling, single point]"
Cc1cccc(Cn2cc(C(=O)Nc3ccc(S(N)(=O)=O)cc3)ccc2=O)c1,AC50,[1],"3.16 µM [rising, single point]"
CCOC(=O)c1[nH]c(C)c(C(=O)Nc2ccc(Cl)cc2)c1C,AC50,[2],"5.01 µM [rising, full curve]"
same,AC50,[3],"10 µM [rising, partial curve]"
COc1cc2nc(Nc3ccc(F)cc3)nc(N)c2cc1OC,AC50,[1],"15.8 µM [falling, partial curve]"
COC(=O)c1ccc(Cn2nnc3sc4c(c3c2=O)CCCC4)cc1,AC50,[1],"3.16 µM [falling, partial curve]"
CCOC(=O)c1cccc(NC(=O)C(Cc2ccccc2)NS(=O)(=O)c2cccc3nsnc23)c1 (stereo unspecified),AC50,[1],"12.6 µM [falling, partial curve]"
C/C=C/C=C/C=O,AC50,[1],"12.6 µM [rising, full curve, poor fit] [measured here: IkB-luc green channel]"
COc1ccc(N(C(=O)COc2ccccc2OC)S(=O)(=O)c2ccc(Cl)cc2)cc1,AC50,[1],"20 µM [falling, partial curve]"
O=C(c1ccccc1)n1nc(-c2ccco2)nc1NCc1ccccc1Cl,AC50,[1],"10 µM [falling, partial curve]"
c1c2c(cc3sc(N4CCCCC4)nc13)OCO2,AC50,[1],"3.98 µM [falling, partial curve]"
Cc1nc2sc(C(c3cccs3)N3CCN(C(=O)c4ccco4)CC3)c(O)n2n1 (stereo unspecified),AC50,[1],"12.6 µM [rising, single point] [measured here: IkB-luc green channel]"
O=C(Nc1cccc(C(F)(F)F)c1)Nc1nnc(N2CCCCC2)s1,AC50,[1],"12.6 µM [falling, partial curve]"
COc1ccc(S(=O)(=O)Nc2cccc(-c3ccc(N4CCCC4)nn3)c2)cc1OC,AC50,[1],"10 µM [falling, partial curve, poor fit]"
N#Cc1c(Nc2cccc(F)c2)sc(C(=O)c2ccc(Cl)cc2)c1N,AC50,[1],"10 µM [falling, partial curve]"
COc1ccc(-c2nc3sc(CCNS(=O)(=O)c4ccc(F)c(C)c4)c(C)n3n2)cc1,AC50,[1],"20 µM [falling, partial curve]"
COc1ccccc1CNC(=O)CN1C(=O)CCn2nc(-c3ccccc3)cc21,AC50,[1],"6.31 µM [falling, partial curve, poor fit]"
COc1ccc(OCCSc2nc3ccccc3n2CC(=O)N2CCOCC2)cc1,AC50,[1],"15.8 µM [falling, single point]"
CCOc1ccc(CNC(=O)C2CCN(C(=O)c3sccc3-n3cccc3)CC2)cc1,AC50,[1],"39.8 µM [falling, single point]"
Cc1ccc(S(=O)(=O)N2CCOCC2)cc1C(=O)Nc1ccc(-c2cn3ccsc3n2)cc1,AC50,[1],"10 µM [falling, partial curve]"
O=c1c2ccccc2nnn1CSc1ccc2c(c1)OCCO2,AC50,[1],"20 µM [falling, partial curve]"
CCOC(=O)c1c(C)[nH]c(C)c1S(=O)(=O)NCC(=O)N1CCN(c2cc(Cl)ccc2C)CC1,AC50,[1],"20 µM [falling, single point]"
COCc1cc(C)nc2sc3c(c12)NC(c1ccccc1C(=O)O)N(c1ccc(OC)cc1)C3=O (stereo unspecified),AC50,[1],"39.8 µM [falling, single point]"
Cc1ccc(C)c(NC(=O)c2nnn(CC(=O)Nc3cccc(C)c3C)c2N)c1,AC50,[1],"15.8 µM [falling, partial curve, poor fit]"
Cc1ccc(S(=O)(=O)N2CCOCC2)cc1C(=O)OCC(=O)N1CCc2ccccc2C1,AC50,[1],"25.1 µM [falling, single point]"
O=c1cc(CN2CCN(S(=O)(=O)c3ccccc3)CC2)nc2sc(-c3ccccc3Cl)nn12,AC50,[1],"15.8 µM [falling, partial curve]"
O=C(CS(=O)(=O)c1nc(-c2ccc(Cl)cc2)cn1-c1ccccc1)Nc1ccc(F)cc1F,AC50,[1],"5.01 µM [falling, partial curve]"
CC(C)(C)OC(=O)N1CC=C2C(C#N)=C(N)C(C#N)(C#N)C(c3cccs3)C2C1 (stereo unspecified),AC50,[1],"25.1 µM [falling, partial curve]"
Cn1c(=O)n(CCc2ccccc2)c(=O)c2c1nc1n2CCCN1CCc1ccccc1,AC50,[1],"6.31 µM [falling, partial curve]"
Cc1ccc2c(c1)CC(C)N2S(=O)(=O)c1nnc(NC(=O)C(C)C)s1 (stereo unspecified),AC50,[1],"0.1 µM [rising, full curve]"
COc1ccc(-c2cc(C(F)(F)F)nc(SCCC(=O)Nc3cccc(O)c3)n2)cc1,AC50,[2],"39.8 µM [rising, single point]"
same,AC50,[3],"31.6 µM [rising, single point]"
CCOc1ccc(CCNC(=O)c2sc3ncccc3c2-n2c(C)ccc2C)cc1,AC50,[1],"25.1 µM [falling, partial curve]"

# Laid out differently: results already given.
structure (smiles) | measurement | setting | value
CCOc1ccc(CNC(=O)C2CCN(C(=O)c3sccc3-n3cccc3)CC2)cc1 | AC50 | [1] | 39.8 µM [falling, single point]
Cc1ccc(S(=O)(=O)N2CCOCC2)cc1C(=O)Nc1ccc(-c2cn3ccsc3n2)cc1 | AC50 | [1] | 10 µM [falling, partial curve]
O=c1c2ccccc2nnn1CSc1ccc2c(c1)OCCO2 | AC50 | [1] | 20 µM [falling, partial curve]
